Publication PMC5316860
These are yes or no findings as the source states them, for the method shown. Binding seen in cells or lysates may run through a third protein. Some entries that bind do so weakly or less than the wild type. For part of these data: Sequences can lack the tags named with a protein.

Sequences of proteins named here, by UniProt entry; tags and fusion partners are left off. A change or cut given only in a name is not applied to a line headed by its entry.
UniProt Q93008: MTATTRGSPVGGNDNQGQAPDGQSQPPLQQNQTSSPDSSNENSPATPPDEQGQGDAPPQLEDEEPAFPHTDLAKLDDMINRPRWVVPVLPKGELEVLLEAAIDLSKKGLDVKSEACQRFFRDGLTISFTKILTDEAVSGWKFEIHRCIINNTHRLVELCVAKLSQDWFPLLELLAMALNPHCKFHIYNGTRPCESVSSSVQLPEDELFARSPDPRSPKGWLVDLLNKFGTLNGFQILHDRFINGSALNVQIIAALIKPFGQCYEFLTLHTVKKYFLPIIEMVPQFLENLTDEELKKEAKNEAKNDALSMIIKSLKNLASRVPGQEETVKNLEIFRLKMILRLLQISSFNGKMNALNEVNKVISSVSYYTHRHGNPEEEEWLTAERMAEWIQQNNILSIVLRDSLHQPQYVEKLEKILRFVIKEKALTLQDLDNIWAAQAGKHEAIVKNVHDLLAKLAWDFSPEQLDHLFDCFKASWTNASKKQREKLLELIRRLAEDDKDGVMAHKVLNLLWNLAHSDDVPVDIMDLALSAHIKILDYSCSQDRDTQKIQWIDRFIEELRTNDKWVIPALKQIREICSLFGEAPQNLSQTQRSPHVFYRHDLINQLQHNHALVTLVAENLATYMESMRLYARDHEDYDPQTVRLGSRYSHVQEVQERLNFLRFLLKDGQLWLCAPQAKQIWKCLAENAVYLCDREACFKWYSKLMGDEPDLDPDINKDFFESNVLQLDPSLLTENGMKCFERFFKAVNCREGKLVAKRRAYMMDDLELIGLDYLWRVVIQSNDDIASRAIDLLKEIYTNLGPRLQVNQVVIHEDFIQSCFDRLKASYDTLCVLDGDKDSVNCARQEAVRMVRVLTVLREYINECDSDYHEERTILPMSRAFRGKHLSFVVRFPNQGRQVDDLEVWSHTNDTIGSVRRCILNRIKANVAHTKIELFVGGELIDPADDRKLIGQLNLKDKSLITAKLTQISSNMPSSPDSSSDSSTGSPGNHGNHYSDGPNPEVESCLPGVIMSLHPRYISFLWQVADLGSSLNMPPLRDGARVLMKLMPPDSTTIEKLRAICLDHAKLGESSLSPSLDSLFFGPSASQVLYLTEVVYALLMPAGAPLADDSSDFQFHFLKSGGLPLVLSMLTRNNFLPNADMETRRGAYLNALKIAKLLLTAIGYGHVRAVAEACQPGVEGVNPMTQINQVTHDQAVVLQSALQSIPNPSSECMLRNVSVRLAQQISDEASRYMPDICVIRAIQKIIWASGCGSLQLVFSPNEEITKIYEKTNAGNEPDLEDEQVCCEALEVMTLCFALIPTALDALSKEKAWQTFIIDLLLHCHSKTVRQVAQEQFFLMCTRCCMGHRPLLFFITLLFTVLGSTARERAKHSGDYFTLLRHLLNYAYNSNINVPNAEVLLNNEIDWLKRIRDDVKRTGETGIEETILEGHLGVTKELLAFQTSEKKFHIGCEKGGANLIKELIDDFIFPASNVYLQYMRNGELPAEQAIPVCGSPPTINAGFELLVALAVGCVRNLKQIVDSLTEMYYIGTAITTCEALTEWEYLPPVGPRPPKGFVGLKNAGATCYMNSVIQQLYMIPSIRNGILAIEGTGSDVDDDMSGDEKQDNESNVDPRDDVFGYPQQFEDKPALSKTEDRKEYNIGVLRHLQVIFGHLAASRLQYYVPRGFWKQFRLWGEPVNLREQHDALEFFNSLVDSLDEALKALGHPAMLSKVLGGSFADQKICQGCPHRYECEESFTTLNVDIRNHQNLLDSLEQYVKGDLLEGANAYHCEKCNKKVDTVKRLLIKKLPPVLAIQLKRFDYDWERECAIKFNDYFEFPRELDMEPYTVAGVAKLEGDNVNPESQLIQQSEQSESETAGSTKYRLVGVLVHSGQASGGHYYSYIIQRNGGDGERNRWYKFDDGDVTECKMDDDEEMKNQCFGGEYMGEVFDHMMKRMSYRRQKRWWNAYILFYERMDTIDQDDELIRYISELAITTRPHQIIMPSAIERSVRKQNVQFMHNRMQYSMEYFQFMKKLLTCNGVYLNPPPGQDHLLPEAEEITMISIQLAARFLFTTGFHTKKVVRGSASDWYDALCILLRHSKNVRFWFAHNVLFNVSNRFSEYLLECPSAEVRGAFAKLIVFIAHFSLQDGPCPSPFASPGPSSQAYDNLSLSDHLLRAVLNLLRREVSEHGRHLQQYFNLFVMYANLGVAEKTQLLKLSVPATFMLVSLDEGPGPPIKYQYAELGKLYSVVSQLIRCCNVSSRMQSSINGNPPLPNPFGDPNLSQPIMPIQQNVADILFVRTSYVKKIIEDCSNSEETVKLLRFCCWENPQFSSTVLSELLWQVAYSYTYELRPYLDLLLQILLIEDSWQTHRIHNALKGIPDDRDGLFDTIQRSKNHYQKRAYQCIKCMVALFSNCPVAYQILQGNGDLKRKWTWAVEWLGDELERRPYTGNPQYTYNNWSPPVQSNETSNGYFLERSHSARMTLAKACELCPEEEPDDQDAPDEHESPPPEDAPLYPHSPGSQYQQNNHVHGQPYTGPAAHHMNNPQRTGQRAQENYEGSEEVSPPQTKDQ

Experiments:
HA-Ets-1 (WT) (human) = target: T1, HA-Ets-1 (WT) (human) (UniProt P14921); assay: co-IP; FLAG-Usp9x constructs co-expressed with HA-Ets-1 in HEK293T, 48 h; lysate adjusted to 100 mM NaCl and 0.125% IGEPAL CA-630; anti-HA (Ets-1) overnight, protein A/G, 4 °C; anti-FLAG immunoblot
T1 sequence: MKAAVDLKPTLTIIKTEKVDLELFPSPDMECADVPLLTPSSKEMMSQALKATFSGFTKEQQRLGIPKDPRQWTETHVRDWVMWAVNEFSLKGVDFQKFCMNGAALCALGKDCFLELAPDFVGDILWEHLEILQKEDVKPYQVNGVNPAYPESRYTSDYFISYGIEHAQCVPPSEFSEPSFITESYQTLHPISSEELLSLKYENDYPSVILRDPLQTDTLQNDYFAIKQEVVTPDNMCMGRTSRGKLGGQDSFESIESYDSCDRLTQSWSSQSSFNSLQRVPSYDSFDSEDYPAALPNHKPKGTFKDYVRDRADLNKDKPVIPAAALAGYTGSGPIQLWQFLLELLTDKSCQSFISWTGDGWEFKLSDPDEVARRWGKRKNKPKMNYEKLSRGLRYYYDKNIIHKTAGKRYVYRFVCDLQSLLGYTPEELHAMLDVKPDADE

[1] = target: T2, Ets-1, endogenous in SK-Mel2 cells (human (endogenous in SK-Mel2)) (UniProt P14921); assay: co-IP; endogenous proteins in SK-Mel2 lysate; lysis in 25 mM HEPES pH 7.5, 400 mM NaCl, 0.5% IGEPAL CA-630, diluted to 100 mM NaCl and 0.125% IGEPAL; anti-Usp9x or anti-Ets-1 (reciprocal) against rabbit control IgG, protein A/G agarose, 4 °C; immunoblot
T2 sequence: T1 sequence

FLAG-Usp9x (full-length) (from UniProt Q93008 1-2554) (enzyme)
binding (HA-Ets-1 (WT) (human)): binds

FLAG-Usp9x-CDM (catalytic domain mutant, C1566A) (from UniProt Q93008 1-2554) (enzyme)
binding (HA-Ets-1 (WT) (human)): binds

Usp9x (ubiquitin specific peptidase 9, X-linked), endogenous in SK-Mel2 cells (from UniProt Q93008 1-2554) (enzyme)
binding [1]: binds
